Measured values taken from paper PMC9523048.

Sequences of proteins named here, by UniProt entry; tags and fusion partners are left off.
UniProt P62141: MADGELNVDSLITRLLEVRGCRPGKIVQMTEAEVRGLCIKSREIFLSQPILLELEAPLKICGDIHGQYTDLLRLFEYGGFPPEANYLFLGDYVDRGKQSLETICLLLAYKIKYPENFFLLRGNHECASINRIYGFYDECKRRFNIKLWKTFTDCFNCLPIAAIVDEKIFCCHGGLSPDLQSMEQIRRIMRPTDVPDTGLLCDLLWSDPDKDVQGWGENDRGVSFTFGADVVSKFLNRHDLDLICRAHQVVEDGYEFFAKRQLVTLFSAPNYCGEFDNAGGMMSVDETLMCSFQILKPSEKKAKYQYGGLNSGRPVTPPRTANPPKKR

Biological target: T1, FLAG-tagged human JMJD1A (human) (UniProt Q9Y4C1)
T1 sequence: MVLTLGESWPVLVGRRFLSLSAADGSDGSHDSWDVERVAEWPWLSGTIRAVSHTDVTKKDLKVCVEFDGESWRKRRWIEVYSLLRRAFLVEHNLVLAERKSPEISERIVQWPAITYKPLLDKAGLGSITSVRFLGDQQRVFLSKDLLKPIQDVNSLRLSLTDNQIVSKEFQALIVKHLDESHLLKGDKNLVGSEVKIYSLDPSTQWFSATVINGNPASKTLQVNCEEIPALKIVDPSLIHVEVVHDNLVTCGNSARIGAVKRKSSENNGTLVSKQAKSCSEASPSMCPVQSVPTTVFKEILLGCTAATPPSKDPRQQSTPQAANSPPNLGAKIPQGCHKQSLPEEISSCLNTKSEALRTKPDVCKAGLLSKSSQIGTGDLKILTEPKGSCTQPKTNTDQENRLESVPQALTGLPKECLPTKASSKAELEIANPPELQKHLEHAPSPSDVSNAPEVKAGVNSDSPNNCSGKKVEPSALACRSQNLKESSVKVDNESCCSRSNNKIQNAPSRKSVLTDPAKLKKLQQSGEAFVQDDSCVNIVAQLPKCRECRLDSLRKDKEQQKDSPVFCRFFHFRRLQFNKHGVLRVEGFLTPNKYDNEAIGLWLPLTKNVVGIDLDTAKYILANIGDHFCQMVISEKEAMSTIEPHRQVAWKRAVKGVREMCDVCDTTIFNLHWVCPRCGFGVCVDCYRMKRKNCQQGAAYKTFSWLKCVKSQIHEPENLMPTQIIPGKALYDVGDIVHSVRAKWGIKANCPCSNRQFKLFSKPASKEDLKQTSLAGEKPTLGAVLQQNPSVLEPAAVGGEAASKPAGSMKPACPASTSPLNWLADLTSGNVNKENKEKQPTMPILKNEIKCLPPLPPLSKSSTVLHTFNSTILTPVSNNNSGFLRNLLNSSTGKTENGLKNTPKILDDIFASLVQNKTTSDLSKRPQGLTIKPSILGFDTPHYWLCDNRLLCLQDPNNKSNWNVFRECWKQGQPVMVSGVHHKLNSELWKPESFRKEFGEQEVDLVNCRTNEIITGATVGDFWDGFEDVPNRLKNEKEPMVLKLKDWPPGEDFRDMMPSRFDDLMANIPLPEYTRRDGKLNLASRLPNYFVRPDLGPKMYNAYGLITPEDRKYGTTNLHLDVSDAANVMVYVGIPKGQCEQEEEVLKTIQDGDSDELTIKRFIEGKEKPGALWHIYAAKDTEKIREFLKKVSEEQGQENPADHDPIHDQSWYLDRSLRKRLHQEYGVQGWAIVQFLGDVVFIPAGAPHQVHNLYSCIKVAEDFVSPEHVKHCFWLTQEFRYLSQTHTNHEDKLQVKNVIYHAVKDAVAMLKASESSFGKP
Assay: affinity purification with mass spectrometry; tandem affinity purification from 3T3-L1 pre-adipocytes expressing FLAG-tagged human JMJD1A: ANTI-FLAG M2 affinity gel (2 h, 4 °C), elution with 3X FLAG peptide, then anti-human JMJD1A (F3640) cross-linked to Dynabeads-Protein G (2 h, 4 °C); LC-MS/MS; two independent experiments; empty vector as control

Molecule	binding
protein phosphatase 1 catalytic subunit beta (PP1β) (from UniProt P62141 1-327) (enzyme)	binds
myosin phosphatase target subunit 1 (MYPT1) (protein, UniProt Q9DBR7 1-1029) MKMADAKQKRNEQLKRWIGSETDLEPPVVKRQKTKVKFDDGAVFLAACSSGDTDEVLKLLHRGADINYANVDGLTALHQACIDDNVDMVKFLVENGANINQPDNEGWIPLHAAASCGYLDIAEFLIGQGAHVGAVNSEGDTPLDIAEEEAMEELLQNEVNRQGVDIEAARKEEERVMLRDARQWLNSGHISDVRHAKSGGTALHVAAAKGYTEVLKLLIQAGYDVNIKDYDGWTPLHAAAHWGKEEACRILVDNLCDMETVNKVGQTAFDVADEDILGYLEELQKKQTLLHSEKRDKKSPLIESTANMENNQPQKAFKNKETLIIEPEKNASRIESLEHEKADEEEEGKKDESSCSSEEDEEDDSESEAETDKTKPMASVSNAHTSSTQAAPAAVTAPTLSSNQGTPTSPVKKFPISTTKISPKEEERKDESPASWRLGLRKTGSYGALAEISASKEAQKEKDTAGVMRSASSPRLSSSLDNKEKEKDNKGTRLAYVTPTIPRRLASTSDIEEKENRESSSLRTSSSYTRRKWEDDLKKNSSINEGSTYHRSCSFGRRQDDLISCSVPSTTSTPTVTSAAGLQRSLPSSTSTAAKTPPGSSSAGTQSSTSNRLWAEDSTEKEKDSAPTAVTIPVAPTVVNAAAPSTTTLTTTTAGTVSEVRERRRSYLTPVRDEESESQRKARSRQARQSRRSTQGVTLTDLQEAEKTIGRSRSTRTREQENEEKEKEEKEKQDKEKQEEKKESEASREDEYKQKYSRTYDETYTRYRPVSTSSSSAPSSSSLSTLGSTLYASSQLNRPNSLVGITSAYSRGLAKENEREGEKKEEEKEGEDKSQPKSIRERRRPREKRRSTGVSFWTQDSDENEQERQSDTEDGSSKRETQTDSVSRYDSSSTSSSDRYDSLLGRSASYSYLEDRKPYSSRLEKDDSTDFKKLYEQILAENEKLKAQLHDTNMELTDLKLQLEKATQRQERFADRSQLEMEKRERRALERRISEMEEELKMLPDLKADNQRLKDENGALIRVISKLSK	binds

These are yes or no findings as the source states them, for the method shown. Binding seen in cells or lysates may run through a third protein. A yes stands for co-enrichment or nearness to the bait. Other partners may have been found. Where a sequence is shown, tags or fusion partners need not be part of it.
